Results on two molecules are retold here after paper PMC3887180.

By UniProt entry, the sequences of proteins in these tests, tags left out.
UniProt P32121: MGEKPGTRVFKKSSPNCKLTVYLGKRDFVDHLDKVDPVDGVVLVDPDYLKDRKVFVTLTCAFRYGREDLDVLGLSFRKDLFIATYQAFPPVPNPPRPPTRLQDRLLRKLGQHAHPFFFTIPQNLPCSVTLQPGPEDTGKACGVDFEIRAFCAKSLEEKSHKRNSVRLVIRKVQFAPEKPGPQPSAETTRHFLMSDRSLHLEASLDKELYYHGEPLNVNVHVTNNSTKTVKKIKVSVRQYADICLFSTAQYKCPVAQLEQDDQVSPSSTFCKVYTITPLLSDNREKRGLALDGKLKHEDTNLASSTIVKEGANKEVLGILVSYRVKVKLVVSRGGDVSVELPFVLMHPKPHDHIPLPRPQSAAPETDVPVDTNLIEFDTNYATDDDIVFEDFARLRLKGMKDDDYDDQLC

The target of one experiment is T1, FLAG-Amer1 (UniProt Q5JTC6).
T1 sequence: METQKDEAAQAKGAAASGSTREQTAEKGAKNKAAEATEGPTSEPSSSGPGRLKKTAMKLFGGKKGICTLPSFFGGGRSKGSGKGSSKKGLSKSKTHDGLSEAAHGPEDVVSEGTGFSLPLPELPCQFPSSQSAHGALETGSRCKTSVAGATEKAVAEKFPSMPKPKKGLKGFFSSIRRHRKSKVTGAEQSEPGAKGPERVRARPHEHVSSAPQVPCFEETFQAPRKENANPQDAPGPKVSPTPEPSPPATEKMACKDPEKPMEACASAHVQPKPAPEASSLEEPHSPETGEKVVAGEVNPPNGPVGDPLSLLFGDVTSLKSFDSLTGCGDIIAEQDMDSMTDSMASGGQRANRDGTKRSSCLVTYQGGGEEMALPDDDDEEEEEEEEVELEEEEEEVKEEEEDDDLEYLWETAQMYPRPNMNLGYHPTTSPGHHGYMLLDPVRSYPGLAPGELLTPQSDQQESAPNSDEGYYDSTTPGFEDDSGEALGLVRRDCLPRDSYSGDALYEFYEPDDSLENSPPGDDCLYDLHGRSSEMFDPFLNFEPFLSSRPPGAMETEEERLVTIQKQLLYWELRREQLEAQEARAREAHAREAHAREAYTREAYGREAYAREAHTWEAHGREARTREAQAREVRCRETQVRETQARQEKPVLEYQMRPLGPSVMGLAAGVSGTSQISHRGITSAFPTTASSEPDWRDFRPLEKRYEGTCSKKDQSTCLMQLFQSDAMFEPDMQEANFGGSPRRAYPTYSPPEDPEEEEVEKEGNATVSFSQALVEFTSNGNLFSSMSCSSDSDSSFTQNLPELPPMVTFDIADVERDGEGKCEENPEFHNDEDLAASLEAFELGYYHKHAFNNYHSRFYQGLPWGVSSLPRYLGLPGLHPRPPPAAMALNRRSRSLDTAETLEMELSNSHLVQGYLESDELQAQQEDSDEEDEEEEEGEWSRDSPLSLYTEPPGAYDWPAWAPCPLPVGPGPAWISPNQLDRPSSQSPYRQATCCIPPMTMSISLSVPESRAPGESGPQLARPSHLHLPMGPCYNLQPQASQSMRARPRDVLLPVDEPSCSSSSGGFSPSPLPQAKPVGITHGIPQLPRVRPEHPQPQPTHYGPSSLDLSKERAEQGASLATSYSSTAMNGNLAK
Kind of experiment: co-IP; overexpressed tagged proteins in HEK293T; Nonidet P-40 lysis buffer (50 mM Tris pH 7.4, 150 mM NaCl, 1 mM EDTA, 0.5% Nonidet P-40), 4 °C, anti-tag antibody and protein G-Sepharose overnight, six washes; Western blot; in Fig. 7A, B with PI4KIIα siRNA or overexpressed PI4KIIα or PIP5KIβ. For orientation: In western blotting, separated proteins are transferred to a membrane and probed.

Experiment [1] addresses endogenous β-arrestin2 (NB4 cells) (human (endogenous in NB4)) (UniProt P32121). Kind of experiment: co-IP; endogenous proteins of NB4 cells (cytoplasmic fraction in Fig. 6C; cells with Wnt3a or control CM for 2 h); precipitation with anti-β-arrestin antibodies A1CT and A2CT, protein G-Sepharose, 4 °C; Western blot.

No constants are given. Whether binding was seen depends on the method and setting. Binding seen in cells or lysates may run through a third protein. Some binding calls cover weakened binding; strength is not graded here. For some assays here: Sequences can lack the tags named with a protein.

With “HA-β-arrestin2 (from UniProt P32121 1-409)”, the binding entry in the experiment with FLAG-Amer1 is recorded as “binds”.

B1: endogenous Amer1 (NB4 cells) (protein, UniProt Q5JTC6 1-1135)
chain: T1 sequence
B1: the binding result in experiment [1] is given as “binds”.
